Test results as given in US20150344571A1 (KANGWON NATIONAL UNIVERSITY UNIVERSITY INDUSTRY COOPERATION …, published 2015).
Results are given in words; binding and its absence hold for the method and conditions named. Some binding calls cover weakened binding; strength is not graded here.

The chains behind the UniProt entries cited, without tags or fusion partners. Residues count along the entry.
UniProt P11627, residues 20-1123: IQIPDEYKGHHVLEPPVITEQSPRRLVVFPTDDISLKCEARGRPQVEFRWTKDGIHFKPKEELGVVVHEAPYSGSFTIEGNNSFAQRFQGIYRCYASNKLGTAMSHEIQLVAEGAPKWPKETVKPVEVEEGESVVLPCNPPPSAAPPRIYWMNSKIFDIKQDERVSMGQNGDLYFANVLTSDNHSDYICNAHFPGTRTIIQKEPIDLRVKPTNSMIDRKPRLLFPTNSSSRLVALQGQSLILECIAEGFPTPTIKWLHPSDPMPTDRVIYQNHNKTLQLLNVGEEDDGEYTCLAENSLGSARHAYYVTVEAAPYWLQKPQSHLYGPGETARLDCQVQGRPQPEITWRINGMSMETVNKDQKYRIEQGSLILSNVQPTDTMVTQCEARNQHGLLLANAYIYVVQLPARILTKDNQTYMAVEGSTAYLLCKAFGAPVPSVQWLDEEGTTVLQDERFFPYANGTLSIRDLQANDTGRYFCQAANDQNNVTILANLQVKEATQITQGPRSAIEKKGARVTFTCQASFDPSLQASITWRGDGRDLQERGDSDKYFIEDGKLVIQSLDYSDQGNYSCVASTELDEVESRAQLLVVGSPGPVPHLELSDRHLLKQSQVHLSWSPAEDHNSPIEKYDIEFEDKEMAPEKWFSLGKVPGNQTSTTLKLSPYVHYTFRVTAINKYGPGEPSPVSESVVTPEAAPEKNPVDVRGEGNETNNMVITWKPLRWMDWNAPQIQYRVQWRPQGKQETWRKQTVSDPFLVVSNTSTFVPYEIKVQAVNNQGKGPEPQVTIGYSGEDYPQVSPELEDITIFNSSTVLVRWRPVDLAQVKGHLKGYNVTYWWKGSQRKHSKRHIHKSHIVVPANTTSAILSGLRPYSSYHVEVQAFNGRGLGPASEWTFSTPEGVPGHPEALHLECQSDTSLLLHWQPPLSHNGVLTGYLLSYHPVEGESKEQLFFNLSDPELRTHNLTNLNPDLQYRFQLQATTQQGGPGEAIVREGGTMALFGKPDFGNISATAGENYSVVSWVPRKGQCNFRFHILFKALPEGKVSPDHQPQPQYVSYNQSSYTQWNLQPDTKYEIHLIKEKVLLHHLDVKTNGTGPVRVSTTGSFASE

B1: R31A (antibody, V domains shown)
VH: EVQLVESGGGVVQPGRSLRLSCAASGFTFSAFGMHWVRQAPGKGLEWVAVISNDGSNKYYADSVKGRFTISRDNSKNTLYLQMNSLRPEDTAVYYCARGRHYGSGSLFDPWGQGTLVTVSS
VL: DIQLTQSPSSLSASVGDRVTITCRASRTISIYVNWYRQRPGKAPESLIYAASNLHSGVPSRFSGSGSGTDFTLTVSSLQPEDFGTYYCQQTHDTRQYTFGQGTKLEIK
B2: Y58A (antibody, V domains shown)
VH: EVQLVESGGGVVQPGRSLRLSCAASGFTFSRFGMHWVRQAPGKGLEWVAVISNDGSNKAYADSVKGRFTISRDNSKNTLYLQMNSLRPEDTAVYYCARGRHYGSGSLFDPWGQGTLVTVSS
VL: DIQLTQSPSSLSASVGDRVTITCRASRTISIYVNWYRQRPGKAPESLIYAASNLHSGVPSRFSGSGSGTDFTLTVSSLQPEDFGTYYCQQTHDTRQYTFGQGTKLEIK
B3: N52aA (antibody, V domains shown)
VH: EVQLVESGGGVVQPGRSLRLSCAASGFTFSRFGMHWVRQAPGKGLEWVAVISADGSNKYYADSVKGRFTISRDNSKNTLYLQMNSLRPEDTAVYYCARGRHYGSGSLFDPWGQGTLVTVSS
VL: DIQLTQSPSSLSASVGDRVTITCRASRTISIYVNWYRQRPGKAPESLIYAASNLHSGVPSRFSGSGSGTDFTLTVSSLQPEDFGTYYCQQTHDTRQYTFGQGTKLEIK
B4: L100cA (antibody, V domains shown)
VH: EVQLVESGGGVVQPGRSLRLSCAASGFTFSRFGMHWVRQAPGKGLEWVAVISNDGSNKYYADSVKGRFTISRDNSKNTLYLQMNSLRPEDTAVYYCARGRHYGSGSAFDPWGQGTLVTVSS
VL: DIQLTQSPSSLSASVGDRVTITCRASRTISIYVNWYRQRPGKAPESLIYAASNLHSGVPSRFSGSGSGTDFTLTVSSLQPEDFGTYYCQQTHDTRQYTFGQGTKLEIK
B5: M34A (antibody, V domains shown)
VH: EVQLVESGGGVVQPGRSLRLSCAASGFTFSRFGAHWVRQAPGKGLEWVAVISNDGSNKYYADSVKGRFTISRDNSKNTLYLQMNSLRPEDTAVYYCARGRHYGSGSLFDPWGQGTLVTVSS
VL: DIQLTQSPSSLSASVGDRVTITCRASRTISIYVNWYRQRPGKAPESLIYAASNLHSGVPSRFSGSGSGTDFTLTVSSLQPEDFGTYYCQQTHDTRQYTFGQGTKLEIK
B6: Q90A (antibody, V domains shown)
VH: EVQLVESGGGVVQPGRSLRLSCAASGFTFSRFGMHWVRQAPGKGLEWVAVISNDGSNKYYADSVKGRFTISRDNSKNTLYLQMNSLRPEDTAVYYCARGRHYGSGSLFDPWGQGTLVTVSS
VL: DIQLTQSPSSLSASVGDRVTITCRASRTISIYVNWYRQRPGKAPESLIYAASNLHSGVPSRFSGSGSGTDFTLTVSSLQPEDFGTYYCQATHDTRQYTFGQGTKLEIK
B7: D101A (antibody, V domains shown)
VH: EVQLVESGGGVVQPGRSLRLSCAASGFTFSRFGMHWVRQAPGKGLEWVAVISNDGSNKYYADSVKGRFTISRDNSKNTLYLQMNSLRPEDTAVYYCARGRHYGSGSLFAPWGQGTLVTVSS
VL: DIQLTQSPSSLSASVGDRVTITCRASRTISIYVNWYRQRPGKAPESLIYAASNLHSGVPSRFSGSGSGTDFTLTVSSLQPEDFGTYYCQQTHDTRQYTFGQGTKLEIK
B8: S52A (antibody, V domains shown)
VH: EVQLVESGGGVVQPGRSLRLSCAASGFTFSRFGMHWVRQAPGKGLEWVAVIANDGSNKYYADSVKGRFTISRDNSKNTLYLQMNSLRPEDTAVYYCARGRHYGSGSLFDPWGQGTLVTVSS
VL: DIQLTQSPSSLSASVGDRVTITCRASRTISIYVNWYRQRPGKAPESLIYAASNLHSGVPSRFSGSGSGTDFTLTVSSLQPEDFGTYYCQQTHDTRQYTFGQGTKLEIK
B9: S55A (antibody, V domains shown)
VH: EVQLVESGGGVVQPGRSLRLSCAASGFTFSRFGMHWVRQAPGKGLEWVAVISNDGANKYYADSVKGRFTISRDNSKNTLYLQMNSLRPEDTAVYYCARGRHYGSGSLFDPWGQGTLVTVSS
VL: DIQLTQSPSSLSASVGDRVTITCRASRTISIYVNWYRQRPGKAPESLIYAASNLHSGVPSRFSGSGSGTDFTLTVSSLQPEDFGTYYCQQTHDTRQYTFGQGTKLEIK
B10: F100dA (antibody, V domains shown)
VH: EVQLVESGGGVVQPGRSLRLSCAASGFTFSRFGMHWVRQAPGKGLEWVAVISNDGSNKYYADSVKGRFTISRDNSKNTLYLQMNSLRPEDTAVYYCARGRHYGSGSLADPWGQGTLVTVSS
VL: DIQLTQSPSSLSASVGDRVTITCRASRTISIYVNWYRQRPGKAPESLIYAASNLHSGVPSRFSGSGSGTDFTLTVSSLQPEDFGTYYCQQTHDTRQYTFGQGTKLEIK
B11: G54A (antibody, V domains shown)
VH: EVQLVESGGGVVQPGRSLRLSCAASGFTFSRFGMHWVRQAPGKGLEWVAVISNDASNKYYADSVKGRFTISRDNSKNTLYLQMNSLRPEDTAVYYCARGRHYGSGSLFDPWGQGTLVTVSS
VL: DIQLTQSPSSLSASVGDRVTITCRASRTISIYVNWYRQRPGKAPESLIYAASNLHSGVPSRFSGSGSGTDFTLTVSSLQPEDFGTYYCQQTHDTRQYTFGQGTKLEIK
B12: H92A (antibody, V domains shown)
VH: EVQLVESGGGVVQPGRSLRLSCAASGFTFSRFGMHWVRQAPGKGLEWVAVISNDGSNKYYADSVKGRFTISRDNSKNTLYLQMNSLRPEDTAVYYCARGRHYGSGSLFDPWGQGTLVTVSS
VL: DIQLTQSPSSLSASVGDRVTITCRASRTISIYVNWYRQRPGKAPESLIYAASNLHSGVPSRFSGSGSGTDFTLTVSSLQPEDFGTYYCQQTADTRQYTFGQGTKLEIK
B13: T91A (antibody, V domains shown)
VH: EVQLVESGGGVVQPGRSLRLSCAASGFTFSRFGMHWVRQAPGKGLEWVAVISNDGSNKYYADSVKGRFTISRDNSKNTLYLQMNSLRPEDTAVYYCARGRHYGSGSLFDPWGQGTLVTVSS
VL: DIQLTQSPSSLSASVGDRVTITCRASRTISIYVNWYRQRPGKAPESLIYAASNLHSGVPSRFSGSGSGTDFTLTVSSLQPEDFGTYYCQQAHDTRQYTFGQGTKLEIK
B14: T94A (antibody, V domains shown)
VH: EVQLVESGGGVVQPGRSLRLSCAASGFTFSRFGMHWVRQAPGKGLEWVAVISNDGSNKYYADSVKGRFTISRDNSKNTLYLQMNSLRPEDTAVYYCARGRHYGSGSLFDPWGQGTLVTVSS
VL: DIQLTQSPSSLSASVGDRVTITCRASRTISIYVNWYRQRPGKAPESLIYAASNLHSGVPSRFSGSGSGTDFTLTVSSLQPEDFGTYYCQQTHDARQYTFGQGTKLEIK
B15: K57A (antibody, V domains shown)
VH: EVQLVESGGGVVQPGRSLRLSCAASGFTFSRFGMHWVRQAPGKGLEWVAVISNDGSNAYYADSVKGRFTISRDNSKNTLYLQMNSLRPEDTAVYYCARGRHYGSGSLFDPWGQGTLVTVSS
VL: DIQLTQSPSSLSASVGDRVTITCRASRTISIYVNWYRQRPGKAPESLIYAASNLHSGVPSRFSGSGSGTDFTLTVSSLQPEDFGTYYCQQTHDTRQYTFGQGTKLEIK
B16: D53A (antibody, V domains shown)
VH: EVQLVESGGGVVQPGRSLRLSCAASGFTFSRFGMHWVRQAPGKGLEWVAVISNAGSNKYYADSVKGRFTISRDNSKNTLYLQMNSLRPEDTAVYYCARGRHYGSGSLFDPWGQGTLVTVSS
VL: DIQLTQSPSSLSASVGDRVTITCRASRTISIYVNWYRQRPGKAPESLIYAASNLHSGVPSRFSGSGSGTDFTLTVSSLQPEDFGTYYCQQTHDTRQYTFGQGTKLEIK
B17: G33A (antibody, V domains shown)
VH: EVQLVESGGGVVQPGRSLRLSCAASGFTFSRFAMHWVRQAPGKGLEWVAVISNDGSNKYYADSVKGRFTISRDNSKNTLYLQMNSLRPEDTAVYYCARGRHYGSGSLFDPWGQGTLVTVSS
VL: DIQLTQSPSSLSASVGDRVTITCRASRTISIYVNWYRQRPGKAPESLIYAASNLHSGVPSRFSGSGSGTDFTLTVSSLQPEDFGTYYCQQTHDTRQYTFGQGTKLEIK
B18: F32A (antibody, V domains shown)
VH: EVQLVESGGGVVQPGRSLRLSCAASGFTFSRAGMHWVRQAPGKGLEWVAVISNDGSNKYYADSVKGRFTISRDNSKNTLYLQMNSLRPEDTAVYYCARGRHYGSGSLFDPWGQGTLVTVSS
VL: DIQLTQSPSSLSASVGDRVTITCRASRTISIYVNWYRQRPGKAPESLIYAASNLHSGVPSRFSGSGSGTDFTLTVSSLQPEDFGTYYCQQTHDTRQYTFGQGTKLEIK
B19: N56A (antibody, V domains shown)
VH: EVQLVESGGGVVQPGRSLRLSCAASGFTFSRFGMHWVRQAPGKGLEWVAVISNDGSAKYYADSVKGRFTISRDNSKNTLYLQMNSLRPEDTAVYYCARGRHYGSGSLFDPWGQGTLVTVSS
VL: DIQLTQSPSSLSASVGDRVTITCRASRTISIYVNWYRQRPGKAPESLIYAASNLHSGVPSRFSGSGSGTDFTLTVSSLQPEDFGTYYCQQTHDTRQYTFGQGTKLEIK
B20: Q89A (antibody, V domains shown)
VH: EVQLVESGGGVVQPGRSLRLSCAASGFTFSRFGMHWVRQAPGKGLEWVAVISNDGSNKYYADSVKGRFTISRDNSKNTLYLQMNSLRPEDTAVYYCARGRHYGSGSLFDPWGQGTLVTVSS
VL: DIQLTQSPSSLSASVGDRVTITCRASRTISIYVNWYRQRPGKAPESLIYAASNLHSGVPSRFSGSGSGTDFTLTVSSLQPEDFGTYYCAQTHDTRQYTFGQGTKLEIK
B21: P102A (antibody, V domains shown)
VH: EVQLVESGGGVVQPGRSLRLSCAASGFTFSRFGMHWVRQAPGKGLEWVAVISNDGSNKYYADSVKGRFTISRDNSKNTLYLQMNSLRPEDTAVYYCARGRHYGSGSLFDAWGQGTLVTVSS
VL: DIQLTQSPSSLSASVGDRVTITCRASRTISIYVNWYRQRPGKAPESLIYAASNLHSGVPSRFSGSGSGTDFTLTVSSLQPEDFGTYYCQQTHDTRQYTFGQGTKLEIK

The binders below were run against mouse L1CAM (purified extracellular domain with S1 tag) (mouse) (UniProt P11627) (assay: indirect ELISA on coated mouse L1CAM, mutant IgG in culture supernatant, relative to Ab4).

binding, binds:
B1
B2
B3
B4
B5
B6
B7
B8
B9
B10
B11
B12
B13
B14
B15
B16
B17
B18
B19
B20
B21
